# “And” between values parts separate entries of the source, which are not always exact repeats. Identical values can stand only once. Hit rate of the full screen: of about 360,000 compounds, about 7,500 (2.1%) were called active. Inconclusive results, whose numbers are uncertain, are shown with a selection of clear calls. Calls come from the whole dose curve; as a rule, active = well fitted inhibition curve with a large enough effect; inconclusive = small, poorly fitted or top-dose-only effect, or effect the other way; inactive = flat fitted curve, though single readings scatter. Potencies of inconclusive entries are doubtful fits and often do not repeat.
# Experiment: Nrf2 qHTS screen for inhibitors; note: nearly all actives have a fitted effect of over 60% in size
# Conditions: A549 ARE-Fluc reporter, luciferase luminescence, 18-24 h; activity change, negative = inhibition: at 46 µM (top of the series)
# In short: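 Cells were seeded and rested 2 h, then exposed to compounds for 18-24 h. CellTiter-Fluor was read first as a viability measure. BugLite was added 15 min before the final luminescent read of ARE-luciferase activity in A549 cells.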
# % is set by controls: 0 for no effect and ±100 for the full control effect; potency is the fitted concentration of half-maximal effect.
Structure (SMILES),Potency,"activity change, negative = inhibition"
O=C(NC(=S)NCCN1CCOCC1)c1ccc(Cl)cc1,"inconclusive: 29.1 µM [activator, single point]",
Cc1nnc(SCC(=O)Nc2sc3c(c2C#N)CCCCC3)n1N,"inconclusive: 7.31 µM [activator, partial curve]",
COc1ccc(CCNC(=O)COc2ccc3c(C)cc(=O)oc3c2)cc1OC,"inconclusive: 14.6 µM [falling, partial curve, poor fit]",
CCOc1ccc(N(CC(=O)NCc2ccccc2)C(=O)Cn2nnc(-c3ccc(C)o3)n2)cc1,,inactive: -1.8%
C=CCNC(=O)CCC(=O)NNc1nc2ccccc2c2nc(-c3ccccc3)nn12,"inconclusive: 25.9 µM [falling, partial curve]",
Cc1ccc(NC(=O)OC(C)CNC(=O)Oc2cccc(C)c2)cc1 (stereo not given),,inactive: 17.4%
COc1ccc(-c2c[n+]3c(n2-c2ccccc2)SCC3)cc1,active: 2.06 µM,
CCC(=O)N1CCc2cc(Br)cc(S(=O)(=O)N3CCC(C(=O)Nc4cccc(C)c4)CC3)c21,active: 8.2 µM,
CN(C(=O)c1ccc(NC(=O)Cc2cccc(NC(=O)C3CCCN(C(=O)C4CCCC4)C3)c2)cc1)C1CCCC1 (stereo not given),active: 18.4 µM,
O=C(NCC(c1ccco1)N1CCc2ccccc2C1)C(=O)Nc1cc(F)ccc1F (stereo not given),,inactive: -14.5%
O=C(Nc1nnc(-c2ccc3c(c2)OCCO3)o1)C1CCCCC1,"inconclusive: 16.4 µM [activator, partial curve]",
Cc1ccc(NC(=O)CSc2ncnc3ccccc23)cc1S(=O)(=O)N1CCOCC1,active: 23.1 µM,
O=C(Cc1ccccc1F)NC1CCCc2ccccc21 (stereo not given),"inconclusive: 23.1 µM [activator, partial curve, poor fit]",
CCOc1cccc(C(=O)NC(=S)Nc2ccccc2)c1,"inconclusive: 8.2 µM [activator, partial curve]",
CCOC(=O)NCCOC(=O)Nc1ccc(Cl)cc1,"inconclusive: 6.51 µM [activator, single point]",
CCCCN(C(=O)C1=NN(c2ccccc2)C(=O)CC1)c1c(N)n(CCC)c(=O)[nH]c1=O,,inactive: 1.56%
O=c1cc(-c2ccc(O)cc2)oc2ccc3ccccc3c12,"inconclusive: 14.6 µM [falling, partial curve, poor fit]",
Cn1c2ccccc2c(=O)c2cc(C#Cc3ccc(N)cc3)ccc21,"inconclusive: 16.4 µM [activator, partial curve, poor fit]",
CC(=O)Nc1ccc(NC(=O)CC2CCCC2)cc1,"inconclusive: 6.51 µM [activator, partial curve, poor fit]",
COc1ccc([C@@H]2[C@@H]3C(=O)N(C(C)(C)C)C(=O)[C@@H]3[C@]3(Cc4ccccc4)C(=O)N(c4cccc(Cl)c4)C(=O)N23)cc1,"inconclusive: 11.6 µM [activator, partial curve]",
Brc1ccc(-c2noc(CCc3ccccc3)n2)cc1,"inconclusive: 10.3 µM [activator, partial curve]",
CCN(CC)c1ccc(C2Nc3cccc4cccc(c34)N2)cc1,,inactive: 0.766%

Structure (SMILES),Potency,"activity change, negative = inhibition"
O=S(=O)(c1ccc(F)c(F)c1)N1CCN(CCc2ccccc2)CC1,active: 23.1 µM,
Cc1cccc(NC(=O)Nc2ccc(C)c(C)c2)n1,"inconclusive: 2.91 µM [activator, single point] and inconclusive: 1.46 µM [activator, full curve]",
Cc1ccc(C(=O)COC(=O)c2cccs2)cc1,"inconclusive: 4.11 µM [activator, full curve, poor fit]",
Cc1cc(OCC(=O)Nc2ccc(C(=O)OC3CCCCC3)cc2)ccc1Cl,,inactive: 5.97%
O=C(CC1SC(N2CCCCC2)=NC1=O)Nc1ccc(C(=O)NCCc2ccc(F)cc2)cc1 (stereo not given),"inconclusive: 4.61 µM [falling, partial curve, poor fit]",
Nn1c(SCc2ccccc2F)nnc1-c1ccccn1,"inconclusive: 13 µM [activator, partial curve]",
Cc1ccc(NC(=O)NC2CCCCC2)cc1Cl,"inconclusive: 3.26 µM [activator, full curve]",
Cc1cccc(OCCCCc2c(C)n[nH]c2C)c1C,"inconclusive: 29.1 µM [falling, single point]",
O=c1c2cccnc2n(Cc2ccc(Cl)cc2)c(=O)n1Cc1ccc(F)cc1,,inactive: 3.6%
O=C(O)c1cccc(NC(=S)NC(NC(=O)c2ccccc2[N+](=O)[O-])C(Cl)(Cl)Cl)c1 (stereo not given),,inactive: 11%
O=c1[nH]c(C2CCN(S(=O)(=O)Cc3ccccc3)CC2)nc2c1nnn2Cc1cccc(Cl)c1,"inconclusive: 18.4 µM [activator, single point]",
CSc1cccc(N2CC(C(=O)N3CCN(S(=O)(=O)c4ccccc4Cl)CC3)CC2=O)c1 (stereo not given),"inconclusive: 16.4 µM [falling, partial curve]",
CC(C)NC(=O)c1ccc(Cl)cc1Cl,"inconclusive: 10.3 µM [activator, partial curve]",
CC(=O)c1cc(F)c(N2CCN(C(=O)COc3ccc(F)cc3)CC2)cc1C,"inconclusive: 11.6 µM [falling, partial curve]",
CC(C)(C)/C(O)=C(/C#N)c1nc2ccccc2[nH]1,"inconclusive: 13 µM [falling, partial curve]",
Cc1cc(C)cc(-n2ncc3c2CCCC3NC(=O)c2cc(C)oc2C)c1 (stereo not given),"inconclusive: 23.1 µM [falling, single point]",
CC(C)(C)c1nnc(NC(=O)NS(=O)(=O)c2ccccc2)s1,,inactive: 6.08%
CC(C)n1cc(C(=O)NC2CC(C)(C)Cc3c2cnn3-c2ccccc2)cn1 (stereo not given),"inconclusive: 13 µM [falling, partial curve, poor fit]",
COc1ccc(-c2csc(NC(=O)CCn3cnc4ccccc4c3=O)n2)cc1OC,"inconclusive: 16.4 µM [falling, partial curve, poor fit]",
COc1cccc(C(=O)N/N=C2\SCC(=O)N2Cc2ccc3c(c2)OCO3)c1,"inconclusive: 0.0052 µM [falling, full curve, poor fit]",
O=C(OCC(=O)N1CCOCC1)c1ccccc1Cc1ccccc1,"inconclusive: 6.51 µM [activator, partial curve]",
O=S(=O)(NC1CCCC1)c1ccc(S(=O)(=O)N(Cc2cccs2)CC2CCCO2)cc1 (stereo not given),active: 18.4 µM,

Structure (SMILES),Potency,"activity change, negative = inhibition"
CCCCN(CCCC)C(=S)N/N=C/c1c(C)[nH]n(-c2ccccc2)c1=O,"inconclusive: 10.3 µM [falling, partial curve, poor fit]",
COc1ccc(NS(=O)(=O)c2ccc(O)c(NC(=O)c3ccc(S(=O)(=O)N4CCCCCC4)cc3)c2)cc1,,inactive: 9.04%
N#Cc1nc(NCCCO)nc(Nc2ccccc2)n1,,inactive: 3.38%
COc1ccc(S(=O)(=O)NC2CC(C)(C)NC(C)(C)C2)cc1C(C)C,,inactive: -2.77%
COc1ccc2[nH]c3c(c2c1)CCN1C(=O)C(CC(=O)NCc2cccc(C(F)(F)F)c2)C[C@H](C(=O)N2CCOCC2)[C@@]31C (stereo not given in full),"inconclusive: 7.31 µM [activator, partial curve, poor fit]",
O=C(/C=C/c1ccc(Cl)cc1Cl)n1cccn1,"inconclusive: 0.92 µM [falling, full curve]",
COc1ccc(C(=O)N/N=C(/C)c2ccc(N3CCCCC3)cc2)cc1,"inconclusive: 14.6 µM [activator, partial curve, poor fit]",
Oc1ccc(-c2nccc(-c3ccc(Cl)cc3)n2)cc1,"inconclusive: 20.6 µM [activator, single point]",
Cc1cc2ccccn2c1C(=O)c1ccc([N+](=O)[O-])o1,"inconclusive: 13 µM [falling, partial curve]",
O/N=C/c1ccc2ccccc2n1,"inconclusive: 23.1 µM [activator, single point]",
CC(C)c1ccc(C(=O)CC2(O)C(=O)N(CCc3ccccc3)c3ccc(Cl)cc32)cc1 (stereo not given),"inconclusive: 29.1 µM [falling, single point]",
O=[N+]([O-])c1cccc(-c2ccc(/C=N/n3c(-c4ccccc4)n[nH]c3=S)o2)c1,,inactive: 9.05%
Oc1ccc(C[C@H]2CNC(=S)N2CC2CCCN2C[C@H](Cc2ccc(O)cc2)N2C[C@H](Cc3ccccc3)N(CC3CCCCC3)C2=S)cc1 (stereo not given in full),"inconclusive: 20.6 µM [falling, single point]",
O=C(Nc1ccc2c(c1)OCCO2)c1ccc2ccccc2n1,"inconclusive: 4.61 µM [activator, full curve]",
Cc1cc2oc(C(=O)Nc3nc(-c4ccccc4)ns3)c(C)c2cc1Cl,"inconclusive: 25.9 µM [falling, partial curve, poor fit]",
CCOc1ccc(CNC(=O)c2sc3nc(C)cc(C)c3c2-n2cccc2)cc1,"inconclusive: 20.6 µM [falling, single point]",
COc1ccc(OCc2cc(/C=N\NC(=O)c3ccccc3)ccc2OC)cc1,"inconclusive: 29.1 µM [falling, partial curve, poor fit]",
O=C(CCc1nnc(CCCc2ccccc2)o1)NCCCC1CCCC1,"inconclusive: 4.11 µM [activator, full curve]",
CN1CCN(C(CNC(=O)C(=O)Nc2ccc(F)cc2)c2cccnc2)CC1 (stereo not given),"inconclusive: 29.1 µM [falling, single point]",
CCN1C(=O)CSC1=Nc1cccc(C(=O)O)c1,"inconclusive: 2.06 µM [falling, partial curve, poor fit]",
Cc1nn(C)c(C)c1S(=O)(=O)N1CCCC(C(=O)NCC2COc3ccccc3O2)C1 (stereo not given),"inconclusive: 16.4 µM [falling, partial curve, poor fit]",
